Some of the results follow.
What was measured:
Test in all cases: protein microarray (ProtoArray v5.0), streptavidin-Alexa Fluor 647
Settings in all cases: 3'-biotin; 20 mM Tris (pH 7.5), 5 mM MgCl2, 100 mM KCl, 0.1% Tween-20, A/T-rich and random oligonucleotide blockers; temperature not stated; high values mean tight binding
[1] = tested on: Mannose-6-phosphate receptor-binding protein 1 (human)
[2] = tested on: Mediator of RNA polymerase II transcription subunit 22 (human)
[3] = tested on: Mediator of RNA polymerase II transcription subunit 4 (human)
[4] = tested on: Melanocortin-2 receptor accessory protein (human)
[5] = tested on: Melanoma-associated antigen 3 (human)
[6] = tested on: Melanoregulin (human)
[7] = tested on: Membrane-associated progesterone receptor component 2 (human)
[8] = tested on: Metal transporter CNNM3 (human)
[9] = tested on: Mitochondrial coiled-coil domain protein 1 (human)
[10] = tested on: Mitochondrial import inner membrane translocase subunit TIM14 (human)
[11] = tested on: Mitogen-activated protein kinase 10 (human)
[12] = tested on: Mitogen-activated protein kinase 14 (human)
[13] = tested on: Mitogen-activated protein kinase kinase kinase 2 (human)
[14] = tested on: Mps one binder kinase activator-like 3 (human)
[15] = tested on: Myelin basic protein (human)
[16] = tested on: Myosin light chain 2, lymphocyte-specific (human)
[17] = tested on: Myosin light chain kinase, smooth muscle (human)
[18] = tested on: NA (human)
[19] = tested on: NAGK (human)
[20] = tested on: NAPG (human)

**Q.** What does the source list for “GGGGACAGGGGTATGGGGAGGGG [G4-3 biotinylated (CtG)]”?
**A.** binding signal [1]: -0.349 z-score; binding signal [2]: -0.342 z-score; binding signal [3]: -0.331 z-score; binding signal [4]: -0.296 z-score; binding signal [5]: -0.344 z-score; binding signal [6]: -0.318 z-score; binding signal [7]: -0.301 z-score; binding signal [8]: -0.319 z-score; binding signal [9]: -0.333 z-score; binding signal [10]: 4.56 z-score; binding signal [11]: -0.334 z-score; binding signal [12]: -0.313 z-score; binding signal [13]: -0.281 z-score; binding signal [14]: -0.307 z-score; binding signal [15]: -0.337 z-score; binding signal [16]: -0.33 z-score; binding signal [17]: -0.335 z-score; binding signal [18]: 4.96 z-score; binding signal [19]: -0.329 z-score; binding signal [20]: -0.322 z-score
